Taken from: PubChem BioAssay AID686943 (Drosophila RNAi Screening Center, 2013)

Test: 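Fly genes whose loss alters ERK activation after insulin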 (primary screen)
Cell system: Drosophila S2R+ haemocyte-like cells expressing YFP-tagged ERK (Rolled)
Reagents: long dsRNA against Drosophila genes
Challenge: insulin stimulation versus unstimulated cells; dose and duration not given
Read-out: 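Antibody staining for doubly phosphorylated ERK divided by ERK-YFP signal, as plate z-scores, in insulin-treated and untreated cells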
Reading the numbers: replicate 1, z-score of dpERK with insulin and replicate 2, z-score of dpERK with insulin: higher = more active ERK per ERK-YFP after insulin
The deposit covers about 23,000 reagents; this is a random part of those with a known target gene and a result. 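Extra replicates exist only for a retested subset of genes; insulin dose and duration not given; both raised and lowered dpERK matter.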 A plus sign joins genes that one reagent is predicted to hit. Not all columns of the deposit are shown. No sequences are given here. Not given: the amount of reagent, the time to read-out.

{"predicted target":"CG3982","amplicon":"DRSC10394","replicate 1, z-score of dpERK with insulin":-4.32,"replicate 2, z-score of dpERK with insulin":-4}
{"predicted target":"AhcyL1","amplicon":"DRSC08647","replicate 1, z-score of dpERK with insulin":0.29,"replicate 2, z-score of dpERK with insulin":-0.06}
{"predicted target":"Timp","amplicon":"DRSC17082","replicate 1, z-score of dpERK with insulin":1.12,"replicate 2, z-score of dpERK with insulin":0.6}
{"predicted target":"CG10479","amplicon":"DRSC09733","replicate 1, z-score of dpERK with insulin":0.06,"replicate 2, z-score of dpERK with insulin":0.45}
{"predicted target":"CG13318","amplicon":"DRSC14581","replicate 1, z-score of dpERK with insulin":-0.12,"replicate 2, z-score of dpERK with insulin":-0.41}
{"predicted target":"Tip60","amplicon":"DRSC18661","replicate 1, z-score of dpERK with insulin":-0.08,"replicate 2, z-score of dpERK with insulin":-1.41}
{"predicted target":"CG42561","amplicon":"DRSC05676","replicate 1, z-score of dpERK with insulin":-0.31,"replicate 2, z-score of dpERK with insulin":-0.42}
{"predicted target":"CG34194","amplicon":"DRSC05666","replicate 1, z-score of dpERK with insulin":0.26,"replicate 2, z-score of dpERK with insulin":0.8}
{"predicted target":"Ass + CG31286","amplicon":"DRSC12493","replicate 1, z-score of dpERK with insulin":-0.93,"replicate 2, z-score of dpERK with insulin":-0.97}
{"predicted target":"GstE14","amplicon":"DRSC06881","replicate 1, z-score of dpERK with insulin":-0.34,"replicate 2, z-score of dpERK with insulin":-0.67}
{"predicted target":"CG5440","amplicon":"DRSC00685","replicate 1, z-score of dpERK with insulin":-0.47,"replicate 2, z-score of dpERK with insulin":0.03}
{"predicted target":"CG32225","amplicon":"DRSC09657","replicate 1, z-score of dpERK with insulin":0.78,"replicate 2, z-score of dpERK with insulin":0.8}
